# Results from patent US20080045535A1, “Prokineticin 2 receptor antagonists” (priority 2005, published 2008).
# Sequences of proteins named here, by UniProt entry; tags and fusion partners are left off.
# UniProt Q8TCW9, whole entry: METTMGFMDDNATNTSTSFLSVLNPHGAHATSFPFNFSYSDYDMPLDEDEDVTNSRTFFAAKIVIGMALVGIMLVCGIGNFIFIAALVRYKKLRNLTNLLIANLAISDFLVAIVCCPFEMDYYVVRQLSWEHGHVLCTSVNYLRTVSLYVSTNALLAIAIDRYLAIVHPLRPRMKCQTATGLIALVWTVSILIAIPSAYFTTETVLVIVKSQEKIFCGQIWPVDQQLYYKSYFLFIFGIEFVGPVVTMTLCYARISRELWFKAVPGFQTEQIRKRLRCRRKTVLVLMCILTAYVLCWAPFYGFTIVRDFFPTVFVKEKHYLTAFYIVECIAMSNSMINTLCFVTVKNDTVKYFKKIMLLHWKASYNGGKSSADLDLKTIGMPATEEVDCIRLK
# Biological target: HEK 293 GPR73 (prokineticin 1 receptor) expressing cells (Homo sapiens, UniProt Q8TCW9)
# Experiment: PK1 functional assay: screening for PK1 antagonists on the FLIPR (calcium fluorescence)
# Conditions: read-out: Ca^2+ Mobilization IC50, HEK 293 GPR73 cells, PK1 ligand at EC50, multiple values = repeat tests
smiles,measurement,value
CCCCOc1ccc(Cn2c(NCCNC(=N)N)nc(=O)n(Cc3ccccc3)c2=O)cc1 [Cpd 148],IC50,> 10 µM

# The structures given here were assigned with low confidence; some may be wrong.
